{"source": "patent US6559099B1", "about": "“Methods for enhancing plant health, protecting plants from biotic and abiotic stress related injuries and enhancing the recovery of plants injured as a result of such stresses” (Wisconsin Alumni Research Foundation, priority 2000, dated 2003)", "tested_on": "Tomato Plants cv. H9144", "assay": "Protection of pesticide (Marathon, imidacloprid) injury and enhancement of recovery", "type": "in vivo", "details": "200 mg/L in 1% ethanol sprayed three weeks after pesticide treatment", "from_the_text": "Marathon with active […] of imidacloprid (available from Olympic Chemical Co., PO Box K, Mainland, Pa.) is a pesticide used for controlling whitefly in plants. This is a systemic pesticide and is introduced to the plant via soil application. As the pesticide accumulates in the foliage the insects feeding on the plants are killed. Sometimes as this chemical accumulates in the plant it can result in phytotoxicity to the plant. To test this, tomato plants cv. […] (cultivar of Heinz Co.) were grown for two (2) months in 20 liter pots in a greenhouse. […] Many leaves lost chlorophyll and plants had poor shoot growth. Three weeks after the treatment of pesticide, […]18:1 or LPI (200 mg/L each) solution containing 1% ethanol were sprayed to the point that solution started to run off the leaves. Control plants were sprayed with distilled water containing 1% ethanol. The LPE solution was prepared by wetting 200 mg of LPE in 1 ml ethanol and then adding distilled water to make 1 liter of total volume. The LPE solution was then sonicated 1 minute before spraying.", "note": "Some entries share one result that the patent states for a list of compounds. At least one structure is not confirmed: it was looked up by name or label, or the drawing left a doubt. Some ranges recur; such a range may be that of the whole group of compounds.", "data": [{"smiles": "CCCCCCCC/C=C\\CCCCCCCC(=O)OCC(O)COP(=O)(O)OCCN", "note": "(stereo not shown) [LPE 18:1]", "values": [{"measurement": "time to resumed shoot growth after spraying", "value": "4 to 5", "unit": "days"}]}]}
